From publication PMC10681901 come the findings set out here.

Protein sequences, listed by entry. Tags and fused reporters are not part of them.
UniProt P29351: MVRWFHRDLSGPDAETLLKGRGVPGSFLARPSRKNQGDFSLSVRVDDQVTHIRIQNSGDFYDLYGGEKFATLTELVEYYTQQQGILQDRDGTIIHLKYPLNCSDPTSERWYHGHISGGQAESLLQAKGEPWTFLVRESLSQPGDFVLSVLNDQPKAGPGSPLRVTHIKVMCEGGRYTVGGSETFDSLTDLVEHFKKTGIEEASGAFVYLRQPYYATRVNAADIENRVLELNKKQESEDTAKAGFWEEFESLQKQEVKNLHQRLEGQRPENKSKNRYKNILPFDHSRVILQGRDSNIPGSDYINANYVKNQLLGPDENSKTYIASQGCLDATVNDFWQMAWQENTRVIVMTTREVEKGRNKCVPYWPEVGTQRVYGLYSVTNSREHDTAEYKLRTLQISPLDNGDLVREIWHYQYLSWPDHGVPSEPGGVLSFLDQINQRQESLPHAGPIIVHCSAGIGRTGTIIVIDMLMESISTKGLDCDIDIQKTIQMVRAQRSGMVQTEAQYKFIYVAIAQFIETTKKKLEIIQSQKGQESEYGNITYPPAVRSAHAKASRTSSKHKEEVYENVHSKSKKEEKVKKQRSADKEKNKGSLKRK

The target of this experiment is T1, CD3γ-Y-Y biotinylated peptide (cytoplasmic tail of mouse CD3γ, unphosphorylated) (mouse).
T1 sequence (peptide, biotin on the N-terminus; free C-terminal COOH): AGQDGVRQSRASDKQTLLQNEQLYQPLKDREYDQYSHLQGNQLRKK
The experiment is described as follows: affinity purification with mass spectrometry; biotinylated peptide added to lysates (0.35% Brij96V) of SILAC-labelled 2B4 T cells (200 × 10^6 cells), captured on StrepT-actine Sepharose beads, heavy and light samples mixed in the third wash, MS-MS; peptides and beads in vast molecular excess; only the target purified.

These are yes or no findings as the source states them, for the method shown. Binding seen in cells or lysates may run through a third protein. A yes stands for co-enrichment or nearness to the bait. Other partners may have been found. A no says only that the protein was not detected with the bait.

“Src homology 2-containing protein tyrosine phosphatase-1 (SHP-1), endogenous in 2B4 T cells (from UniProt P29351 1-595) (enzyme)”: the binding result is listed as “no binding”.
